{
  "source": "patent US20210198374A1",
  "binders": {"B1": {"name": "2B3 (antibody, V domains shown)", "VH": "QVQLVQSGAEVKKPGASVKVSCKASGYTFTGYYIHWVRQAPGQGLEWMGWINPNSGGTNSAQKFQDRVTITRVTSINTAYMELSRLRSDDTAVYFCARDRLVLPWFGEIFPDAFDIWGQGTLVTVSS", "VL": "EIVMTQSPATLSVSPGERATLSCRASQSIRSNLAWYQQKPGQAPRLLIYGASTRATGIPARFSGSGSGTEFTLTISSLQSENFAVYYCQQYNNWPLTFGGGTKVEIK"}},
  "key": {"[1]": {"biological_target": "recombinant cynomolgus CD27-FLAG-HIS (cynomolgus)", "assay": "ELISA; plate coated with recombinant cynomolgus CD27-FLAG-HIS (legend of FIG. 2)"}, "[2]": {"biological_target": "recombinant cynomolgus CD27-FLAG-HIS (cynomolgus)", "assay": "ELISA; plate coated with recombinant cynomolgus CD27-FLAG-HIS; hybridoma supernatants, anti-rat IgG Fc-HRP detection"}},
  "note": "Results are given in words; binding and its absence hold for the method and conditions named. Binding calls can cover weak binding; strength is not graded here.",
  "data": [
    {"binder": "B1", "values": [
      {"measurement": "binding", "setting": "[1]", "value": "binds"},
      {"measurement": "binding", "setting": "[2]", "value": "binds"}
    ]}
  ]
}
